# Results: article PMC11792579
# Protein sequences, listed by entry. Tags and fused reporters are not part of them.
# UniProt O95071: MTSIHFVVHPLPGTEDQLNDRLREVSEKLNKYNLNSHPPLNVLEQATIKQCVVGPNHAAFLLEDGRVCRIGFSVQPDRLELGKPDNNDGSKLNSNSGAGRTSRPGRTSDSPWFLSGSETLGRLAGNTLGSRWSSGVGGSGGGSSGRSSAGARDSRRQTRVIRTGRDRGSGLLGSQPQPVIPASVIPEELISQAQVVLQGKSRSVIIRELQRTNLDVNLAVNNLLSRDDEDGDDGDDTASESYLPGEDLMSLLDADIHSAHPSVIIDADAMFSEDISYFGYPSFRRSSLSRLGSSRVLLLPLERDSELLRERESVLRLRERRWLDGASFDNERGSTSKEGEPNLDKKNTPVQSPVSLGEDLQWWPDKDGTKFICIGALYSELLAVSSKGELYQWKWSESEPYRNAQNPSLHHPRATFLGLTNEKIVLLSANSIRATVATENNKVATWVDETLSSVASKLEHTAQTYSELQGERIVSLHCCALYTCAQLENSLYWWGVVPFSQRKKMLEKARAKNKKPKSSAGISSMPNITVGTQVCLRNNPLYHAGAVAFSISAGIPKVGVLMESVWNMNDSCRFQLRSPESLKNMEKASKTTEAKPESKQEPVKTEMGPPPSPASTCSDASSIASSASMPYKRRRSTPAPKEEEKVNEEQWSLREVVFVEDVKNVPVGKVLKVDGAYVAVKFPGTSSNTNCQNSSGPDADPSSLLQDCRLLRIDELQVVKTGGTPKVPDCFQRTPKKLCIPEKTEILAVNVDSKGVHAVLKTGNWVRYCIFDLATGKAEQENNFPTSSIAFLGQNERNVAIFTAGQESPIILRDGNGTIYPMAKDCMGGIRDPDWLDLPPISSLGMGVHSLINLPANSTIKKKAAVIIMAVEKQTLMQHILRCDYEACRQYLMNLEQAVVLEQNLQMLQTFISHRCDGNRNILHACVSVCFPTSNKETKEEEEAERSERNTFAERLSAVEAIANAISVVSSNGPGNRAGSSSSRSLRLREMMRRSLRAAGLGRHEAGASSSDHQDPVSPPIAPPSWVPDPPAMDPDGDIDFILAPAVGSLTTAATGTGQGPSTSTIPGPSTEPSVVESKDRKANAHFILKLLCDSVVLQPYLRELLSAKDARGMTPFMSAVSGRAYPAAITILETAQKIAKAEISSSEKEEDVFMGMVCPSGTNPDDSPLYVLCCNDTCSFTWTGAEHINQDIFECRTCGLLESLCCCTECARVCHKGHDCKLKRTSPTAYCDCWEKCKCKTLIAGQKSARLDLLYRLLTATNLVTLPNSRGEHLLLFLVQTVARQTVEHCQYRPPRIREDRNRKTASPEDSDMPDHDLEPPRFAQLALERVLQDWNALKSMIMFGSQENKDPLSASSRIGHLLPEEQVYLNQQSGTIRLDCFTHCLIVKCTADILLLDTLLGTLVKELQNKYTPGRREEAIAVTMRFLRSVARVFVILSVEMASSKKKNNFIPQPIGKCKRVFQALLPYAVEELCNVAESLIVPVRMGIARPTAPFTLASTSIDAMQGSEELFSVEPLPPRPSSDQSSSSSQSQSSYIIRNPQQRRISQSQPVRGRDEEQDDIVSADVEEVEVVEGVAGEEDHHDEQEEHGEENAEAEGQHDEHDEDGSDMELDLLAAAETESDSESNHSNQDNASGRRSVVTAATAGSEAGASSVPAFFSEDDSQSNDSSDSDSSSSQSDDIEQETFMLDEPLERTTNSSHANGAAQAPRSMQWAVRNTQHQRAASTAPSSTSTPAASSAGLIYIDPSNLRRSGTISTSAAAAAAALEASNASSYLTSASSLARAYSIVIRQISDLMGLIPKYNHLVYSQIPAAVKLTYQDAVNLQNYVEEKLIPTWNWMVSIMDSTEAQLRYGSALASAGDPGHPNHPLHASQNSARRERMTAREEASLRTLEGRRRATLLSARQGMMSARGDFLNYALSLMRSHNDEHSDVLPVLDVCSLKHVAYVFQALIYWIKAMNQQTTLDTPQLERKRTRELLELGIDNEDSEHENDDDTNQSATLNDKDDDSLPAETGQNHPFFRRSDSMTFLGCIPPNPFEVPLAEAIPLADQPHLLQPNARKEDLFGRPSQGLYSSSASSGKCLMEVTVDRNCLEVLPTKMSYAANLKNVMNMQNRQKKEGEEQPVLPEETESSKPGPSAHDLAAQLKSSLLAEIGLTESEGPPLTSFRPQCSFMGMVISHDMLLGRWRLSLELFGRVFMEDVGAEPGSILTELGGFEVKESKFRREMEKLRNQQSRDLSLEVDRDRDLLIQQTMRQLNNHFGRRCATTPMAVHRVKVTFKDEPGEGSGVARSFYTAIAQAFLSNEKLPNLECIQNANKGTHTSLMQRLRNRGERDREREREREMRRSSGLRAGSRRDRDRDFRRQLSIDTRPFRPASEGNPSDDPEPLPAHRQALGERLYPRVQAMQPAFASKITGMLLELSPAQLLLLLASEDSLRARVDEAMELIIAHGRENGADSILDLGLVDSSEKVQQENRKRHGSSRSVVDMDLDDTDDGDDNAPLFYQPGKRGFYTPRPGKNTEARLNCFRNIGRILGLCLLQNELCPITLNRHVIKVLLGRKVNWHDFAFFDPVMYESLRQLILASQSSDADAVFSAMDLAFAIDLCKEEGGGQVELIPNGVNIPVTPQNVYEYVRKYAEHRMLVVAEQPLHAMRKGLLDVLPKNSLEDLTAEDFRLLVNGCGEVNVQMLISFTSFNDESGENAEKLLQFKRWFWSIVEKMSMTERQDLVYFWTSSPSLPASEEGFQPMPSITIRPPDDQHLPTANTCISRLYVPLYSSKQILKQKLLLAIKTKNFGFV
# Where a chain is given by its changes, count along the chain named. No constants are given. Whether binding was seen depends on the method and setting. Binding seen in cells or lysates may run through a third protein. Some binding calls cover weakened binding; strength is not graded here. Where a sequence is shown, tags or fusion partners need not be part of it.
# How the values were obtained:
# HA-NAT10 K426R = target: T1, HA-NAT10 K426R (UniProt Q9H0A0); assay: co-IP; HA-NAT10 (WT or K-R mutants) co-expressed with MYC-Ub and Flag-UBR5; MG132 (100 nM, 8 h); IP with HA antibody, immunoblotting
# T1 sequence: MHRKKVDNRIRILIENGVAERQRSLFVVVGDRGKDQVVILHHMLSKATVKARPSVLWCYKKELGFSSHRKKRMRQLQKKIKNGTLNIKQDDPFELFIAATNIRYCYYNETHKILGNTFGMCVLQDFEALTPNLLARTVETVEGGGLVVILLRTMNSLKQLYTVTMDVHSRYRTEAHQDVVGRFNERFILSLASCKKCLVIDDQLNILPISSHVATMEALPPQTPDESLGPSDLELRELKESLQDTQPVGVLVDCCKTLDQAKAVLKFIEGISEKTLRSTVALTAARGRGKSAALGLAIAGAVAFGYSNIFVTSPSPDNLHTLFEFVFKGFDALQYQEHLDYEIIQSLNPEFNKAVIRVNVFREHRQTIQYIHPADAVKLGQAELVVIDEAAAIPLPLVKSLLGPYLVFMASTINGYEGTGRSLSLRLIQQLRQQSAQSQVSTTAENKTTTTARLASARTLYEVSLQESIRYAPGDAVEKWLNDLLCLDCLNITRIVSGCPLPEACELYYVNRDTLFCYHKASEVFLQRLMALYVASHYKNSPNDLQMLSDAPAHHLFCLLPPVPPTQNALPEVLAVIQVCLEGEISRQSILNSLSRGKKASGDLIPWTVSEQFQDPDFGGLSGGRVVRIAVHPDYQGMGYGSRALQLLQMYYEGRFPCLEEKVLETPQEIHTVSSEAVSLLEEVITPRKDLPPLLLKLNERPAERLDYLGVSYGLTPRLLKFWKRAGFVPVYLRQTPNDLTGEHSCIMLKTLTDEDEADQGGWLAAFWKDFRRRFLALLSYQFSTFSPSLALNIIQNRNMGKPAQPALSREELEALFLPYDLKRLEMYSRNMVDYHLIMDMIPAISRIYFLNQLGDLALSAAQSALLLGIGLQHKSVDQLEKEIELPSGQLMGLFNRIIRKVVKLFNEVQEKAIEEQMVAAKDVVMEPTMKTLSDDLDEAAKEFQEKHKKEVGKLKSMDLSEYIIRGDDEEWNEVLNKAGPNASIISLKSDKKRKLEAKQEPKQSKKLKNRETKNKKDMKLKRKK
# HA-NAT10 K520R = target: T2, HA-NAT10 K520R (UniProt Q9H0A0); assay: as above
# T2 sequence: T1 sequence with R426K, K520R
substance,measurement,setting,value
FLAG-UBR5 (from UniProt O95071 1-2799),binding,HA-NAT10 K426R,binds
same,binding,HA-NAT10 K520R,binds
